Data: the supplement of paper PMC7858590
± gives the standard deviation of the averaged measurements. The full ranking holds about 3,800 compounds; the median of “cell shape (eccentricity) Z-score vs DMSO control” is about 1.1, and the lowest 2% start at about -4.7. This is one part of the list.

Test system: human monocyte-derived macrophages (M0)
Assay: cell shape (eccentricity) Z-score vs DMSO control; higher = more elongated, M2-like morphology
Settings: 20 µM; 24 h; macrophage state: M0 (M-CSF)

Compound | cell shape (Z-score)
CC(=O)OCC1=C[C@@H](O)[C@@H]2C=CO[C@@H](OC3OC(CO)C(O)C(O)C3O)[C@H]12 (stereo not given in full) | 2.31
CC(C)=CCC[C@](C)(O[C@@H]1O[C@H](CO[C@@H]2OC[C@H](O)[C@H](O)[C@H]2O)[C@@H](O)[C@H](O)[C@H]1O)[C@H]1CC[C@]2(C)C1[C@H](O)CC1[C@@]3(C)CC[C@H](O[C@@H]4O[C@H](CO)[C@@H](O)[C@H](O)[C@H]4O[C@@H]4O[C@H](CO)[C@@H](O)[C@H](O)[C@H]4O)C(C)(C)C3CC[C@]12C (stereo not given in full) | 2.14
O=C(OC[C@H]1O[C@@H](Oc2ccc(O)cc2)[C@H](O)[C@@H](O)[C@@H]1O)c1ccc(O)cc1 | 0.0126
CC(=C\C(=O)O)/C=C(\C)CC(C)CCCCC(O)C(CO)C(=O)O (stereo not given) | 2.02 ± 2.7
COc1cc(OC)c2c(=O)cc(-c3ccccc3)oc2c1 | 2.66
COc1ccc(-c2oc3ccccc3c(=O)c2OC)cc1 | 0.417
CC(C)(O)C(O)COc1c2occc2cc2ccc(=O)oc12 (stereo not given) | 1.67 ± 2.2
C=CCN1CCc2nc(N)sc2CC1 | 2.36
CN(C)c1nc(N(C)C)nc(N(C)C)n1 | 0.599
OCC1OC(n2cnc3c(NC4CCCC4)ncnc32)C(O)C1O (stereo not given) | 4.05
COc1cc2ncn(-c3cc(OCc4ccccc4S(C)(=O)=O)c(C#N)s3)c2cc1OC | 2.19
NNC(=O)c1ccncc1 | -1.03
Clc1ccc(-c2nc3sccn3c2/C=N/OCc2ccc(Cl)c(Cl)c2)cc1 | 0.243
CN1CCC(=C2c3ccccc3CCc3sccc32)CC1 | -2.26
COc1cc(CCC(O)CC(=O)CCc2ccc(O)cc2)ccc1O (stereo not given) | 1.04
CC1OC(Oc2ccc(-c3cc(=O)c4c(O)cc(OC5OC(CO)C(O)C(O)C5O)cc4o3)cc2)C(O)C(O)C1O (stereo not given) | 0.721 ± 2.7
COc1cc2c(cc1-c1coc3cc(O[C@@H]4O[C@H](CO)[C@@H](O)[C@H](O)[C@H]4O)ccc3c1=O)OCO2 | 2.47
O=C(NOCC(O)CO)c1cc(Br)c(F)c(F)c1Nc1ccc(I)cc1F (stereo not given) | -0.375
C/C(=C/COc1c(OC2OC(CO)C(O)C(O)C2O)ccc2ccc(=O)oc12)CO (stereo not given) | 3.07 ± 1.4
C/C=C/C#CC#C[C@@H](O[C@@H]1O[C@H](CO)[C@@H](O)[C@H](O)[C@H]1O)[C@H](O)/C=C/CCCO | -5.71
OC1COC(OCC2OC(OCc3ccccc3)C(O)C(O)C2O)C(O)C1O (stereo not given) | 2.15
CCCCCCCNS(=O)(=O)c1cccc2c(Cl)cccc12 | 0.986

A second format for part of the listing above:
Compound	cell shape (Z-score)
COc1ccc(-c2oc3ccccc3c(=O)c2OC)cc1	0.417
CC(C)(O)C(O)COc1c2occc2cc2ccc(=O)oc12 (stereo not given)	1.67 ± 2.2
C=CCN1CCc2nc(N)sc2CC1	2.36

3 records drawn at random from those above:
Compound | cell shape (Z-score)
CC(C)=CCC[C@](C)(O[C@@H]1O[C@H](CO[C@@H]2OC[C@H](O)[C@H](O)[C@H]2O)[C@@H](O)[C@H](O)[C@H]1O)[C@H]1CC[C@]2(C)C1[C@H](O)CC1[C@@]3(C)CC[C@H](O[C@@H]4O[C@H](CO)[C@@H](O)[C@H](O)[C@H]4O[C@@H]4O[C@H](CO)[C@@H](O)[C@H](O)[C@H]4O)C(C)(C)C3CC[C@]12C (stereo not given in full) | 2.14
CN(C)c1nc(N(C)C)nc(N(C)C)n1 | 0.599
CN1CCC(=C2c3ccccc3CCc3sccc32)CC1 | -2.26

Additional entries.

Compound | cell shape (Z-score)
CC1=CC(=O)OC1(O)CCC(C)CC(=O)O (stereo not given) | 0.759
CCCCc1oc2ccccc2c1C(=O)c1cc(I)c(OCCN(CC)CC)c(I)c1 | 4.05
O=c1oc(Cl)c(Cl)c2ccccc12 | 0.54
CCOc1ccc2c(c1)C(C)=CC(C)(C)N2 | 0.434
COc1ccc(CCc2cc(OC)cc(=O)o2)cc1 | -1.054 ± 0.0014
CC(C)c1ccc(Cn2ccc3c4c(N)nc(NC5CC5)nc4ccc32)cc1 | -4.69
CCOc1ccc(Cc2nccc3cc(OCC)c(OCC)cc23)cc1OCC | 4.7
CN1CCCN=C1COC(=O)C(O)(c1ccccc1)C1CCCCC1 (stereo not given) | 0.631
Cc1nc2n(c(=O)c1CCN1CCC(c3noc4cc(F)ccc34)CC1)CCCC2 | -1.11
COc1ccc(-c2cc(=O)c3c(OC)c(OC)c(OC)c(OC)c3o2)cc1 [listing 1 of 2 here] | 3.86
CC(=O)c1ccc(O[C@@H]2O[C@H](CO)[C@@H](O)[C@H](O)[C@H]2O)c(/C=C/C(C)(C)O)c1 | -0.664
COc1ccc(-c2cc(=O)c3c(OC)c(OC)c(OC)c(OC)c3o2)cc1 [listing 2 of 2 here] | 2.3
CC(C)=CCc1c(O)cc2oc(C)cc(=O)c2c1O | 4.53
CC(C=CC=C(C=CC1=C(C)CCCC1(C)C)c1ccc(C)cc1)=CC(=O)O | -2.02
O=C(O)CCC/C=C\C[C@@H]1CO[C@H](C(F)(F)F)O[C@@H]1c1ccccc1O | -2.6
CC12CC3CC(C)(C1)CC(N)(C3)C2 | 1.66
O=C(O)CCC1OC(=O)C(=O)C1c1ccccc1 (stereo not given) | -0.0949
COc1ccc2oc(-c3ccccc3)cc(=O)c2c1 | 1.24
CC(C)n1cnc2c(NCc3ccccc3)nc(NCCO)nc21 | 8.04
C[C@]12CCC3c4ccc(O)cc4CC[C@H]3C1CC[C@H]2O (stereo not given in full) | 2.17 ± 0.22
C/C(=C\CCC(C)C1CC(O)C2(C)C3CCC4C(C)(C)C(OC5OCC(O)C(O)C5O)CCC45CC35CC(O)C12C)C(=O)O (stereo not given) | 0.534
CC(=O)O[C@@H]1[C@@H](OC(=O)/C=C/c2ccccc2)[C@@H](OC(=O)/C=C/c2ccccc2)[C@H](O[C@H]2[C@@H]3C=CO[C@@H](O[C@@H]4O[C@H](CO)[C@@H](O)[C@H](O)[C@H]4O)[C@@H]3[C@@]3(CO)O[C@@H]23)O[C@H]1C | 0.429 ± 1.5

Compound | cell shape (Z-score)
CC(C)=CCCC1(C)C=Cc2c(ccc3c2[nH]c2cc(O)c(C)cc23)O1 (stereo not given) | 1.36
CC(C)(O)C1Cc2cc(CCc3cc(O)cc(O)c3)ccc2O1 (stereo not given) | 2.22
Cn1ccc2cc3c(cc21)CCN3C(=O)Nc1cccnc1 | 0.667
Cc1c(C(=O)N(C)C2CCCCC2)sc2nc3ccc(N)cc3n12 | -0.53
CCOc1nc2cccc(C(=O)OC(C)OC(=O)OC3CCCCC3)c2n1Cc1ccc(-c2ccccc2-c2nnn[nH]2)cc1 (stereo not given) | -4.32
Cc1cc2nc3c(=O)[nH]c(=O)nc-3n(C[C@@H](O)[C@@H](O)[C@@H](O)CO)c2cc1C | 0.422
CC(C)(C)c1cc(O)c(C(C)(C)C)cc1O | 0.862
O=C(NC1CCCCC1)C(c1ccccc1Cl)N(C(=O)Cc1cccs1)c1cccc(F)c1 (stereo not given) | 2.3
NCCCCCc1cnc[nH]1 | -0.662
CCCCCCCCN[C@H](C)[C@@H](O)c1ccc(SC(C)C)cc1 | -2.88
Cc1nnc(SCC2=C(C(=O)O)N3C(=O)[C@@H](N)[C@H]3SC2)s1 | 2.87
CC(C)(C)CC(C)(C)c1ccc(OCCOCC[N+](C)(C)Cc2ccccc2)cc1 | -0.216
Nc1nc(NCC2CCC(CNS(=O)(=O)c3cccc4ccccc34)CC2)nc2ccccc12 (stereo not given) | 3.52
CC(=O)O[C@H]1[C@H](Oc2ccccc2COC(=O)C2(O)C=CCCC2=O)O[C@H](COC(=O)C2(O)C=CCCC2=O)[C@@H](O)[C@@H]1O (stereo not given in full) | 0.676
C[C@H]1CC2C([C@@H](O)C[C@@]3(C)C2CC[C@]3(O)C(=O)CO)[C@@]2(C)C=CC(=O)C=C12 (stereo not given in full) | -0.69
CCOC(=O)c1ccc(N2NC(=O)C(=Cc3ccc([N+](=O)[O-])o3)C2=O)cc1 | -1.33
COc1cccc(O)c1O | -1.23
CC(C)OC(=O)OCOP(=O)(CO[C@H](C)Cn1cnc2c(N)ncnc21)OCOC(=O)OC(C)C | -1.23
COC(=O)C1=C(C)NC(C)=C(C(=O)OCCSc2ccccc2)C1C (stereo not given) | 1.68
C[C@@H]1CC[C@]2(C(=O)O)CC[C@]3(C(=O)O)C(=CCC4[C@@]5(C)CC[C@H](O[C@@H]6O[C@H](C)[C@H](O)[C@H](O)[C@H]6O)C(C)(C)C5CC[C@]43C)C2[C@H]1C (stereo not given in full) | 2.14
CC1CC[C@@]2(OC1)O[C@H]1CC3C4CC=C5C[C@@H](O[C@@H]6O[C@H](CO)[C@@H](O[C@@H]7O[C@@H](C)[C@H](O)[C@@H](O)[C@H]7O)[C@H](O)[C@H]6O[C@@H]6O[C@@H](C)[C@H](O)[C@@H](O)[C@H]6O)CC[C@]5(C)C4CC[C@]3(C)[C@@]1(O)[C@@H]2C (stereo not given in full) | -1.93
O=C(COc1ccc(Cl)cc1)N1CCN(Cc2ccc3c(c2)OCO3)CC1 | -0.73

Compound | cell shape (Z-score)
Nc1nc(N)c2nc(-c3ccccc3)c(N)nc2n1 | 3.68
O=C(NCCCCN1CCN(c2cccc(Cl)c2Cl)CC1)c1ccc2c(c1)Cc1ccccc1-2 | -2.23
CC(=O)c1ccc(N2CCOCC2)cc1O | 2.03
O=C(O)c1ccc2c(c1)nc(Nc1cccc(Cl)c1)c1ccncc12 | 12.4
CC(=O)O[C@H]1C[C@@]2(C)[C@@H](CC[C@H]3[C@@]4(C)C=CC(=O)[C@@H](C)[C@@H]4[C@H](OC(C)=O)C(=O)[C@@]32C)/C1=C(\CCC=C(C)C)C(=O)O | -0.662
CC[C@]1(O)CC2CN(CCc3c([nH]c4ccccc34)[C@@](C(=O)OC)(c3cc4c(cc3OC)N(C)[C@H]3[C@@](O)(C(=O)OC)[C@H](OC(C)=O)[C@]5(CC)C=CCN6CC[C@]43[C@@H]65)C2)C1 (stereo not given in full) | 6.51
CC(=O)N1CCCC1C(=O)O (stereo not given) | 0.131
O=C(C=Cc1c(C(=O)O)[nH]c2cc(Cl)cc(Cl)c12)Nc1ccccc1 | 0.447
C=C(C(=O)O)C1CCC2(C)CCC(O)C2(C(C)=O)C1 (stereo not given) | 1.41
COc1ccc(C(=O)O[C@H]2CC(C)=CC[C@]3(C)[C@@H]2[C@](O)(C(C)C)C[C@@H]3O)cc1 | 0.148
Cc1ccsc1/C=C/C1=NCCCN1C | 0.532
N#C[C@@H](O[C@@H]1O[C@H](CO)[C@@H](O)[C@H](O)[C@H]1O[C@@H]1O[C@H](CO)[C@@H](O)[C@H](O)[C@H]1O)c1ccccc1 | 0.85 ± 0.086
O=C1C[C@H](c2ccccc2)Oc2c(Cc3ccccc3O)c(O)cc(O)c21 | 0.177
CC1(C)CC[C@]2(C(=O)O[C@@H]3O[C@H](CO)[C@@H](O)[C@H](O)[C@H]3O)CC[C@]3(C)C(=CCC4[C@@]5(C)CC[C@H](O[C@@H]6O[C@H](C(=O)O)[C@@H](O)[C@H](O)[C@H]6O)C(C)(C)C5CC[C@]43C)C2C1 (stereo not given in full) | -1.7
O=c1cc(-c2ccc(O)c(O)c2)oc2c(C3O[C@H](CO)[C@H](O)[C@H](O)[C@H]3O)c(O)cc(O)c12 (stereo not given in full) | 1.83
COP(=O)(OC)OC(c1ccc(Cl)cc1)P(=O)(OC)OC (stereo not given) | 3.91
Cn1nnc2c(C(N)=O)ncn2c1=O | 2.98
C#C[C@]1(OC(C)=O)CCC2C3CCC4=C/C(=N/O)CCC4C3CC[C@@]21CC (stereo not given in full) | 1.53
CC1(C)CCC(CN2CCN(c3ccc(C(=O)NS(=O)(=O)c4ccc(NCC5CCOCC5)c([N+](=O)[O-])c4)c(Oc4cnc5[nH]ccc5c4)c3)CC2)=C(c2ccc(Cl)cc2)C1 | 6.74
